Test results taken from patent US20250099448A1, “HETEROCYCLIC COMPOUNDS” (Hoffmann-La Roche Inc., priority 2022, published 2025).
Structures were worked out from names or drawings and are uncertain.

By UniProt entry, the sequences of proteins in these tests, tags left out.
UniProt Q99685, whole entry: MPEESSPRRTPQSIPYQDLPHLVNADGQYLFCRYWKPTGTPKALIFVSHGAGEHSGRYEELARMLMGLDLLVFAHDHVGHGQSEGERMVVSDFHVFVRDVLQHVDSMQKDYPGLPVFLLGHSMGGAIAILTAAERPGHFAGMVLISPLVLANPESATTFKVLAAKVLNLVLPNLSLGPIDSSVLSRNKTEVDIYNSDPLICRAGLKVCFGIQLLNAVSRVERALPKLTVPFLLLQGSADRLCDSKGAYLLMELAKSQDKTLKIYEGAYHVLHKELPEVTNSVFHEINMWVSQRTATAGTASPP

Biological target: MAGL protein (Homo sapiens, UniProt Q99685)
Test: 2-AG assay: MAGL inhibitory activity by hydrolysis of 2-arachidonoylglycerol to arachidonic acid, followed by mass spectrometry
Conditions: read-out: IC50 MAGL, 8 μM 2-arachidonoylglycerol, 15 min preincubation, 30 min reaction at RT, RapidFire MS readout
Description: Compounds of formula (I) were profiled for MAGL inhibitory activity by determining the enzymatic activity by following the hydrolysis of the natural substrate 2-arachidonoylglycerol (2-AG) resulting in arachidonic acid, which can be followed by mass spectrometry. This assay is hereinafter abbreviated “2-AG assay”. The 2-AG assay was carried out in 384 well polypropylene assay plates. Compound dilutions were made in 100% DMSO in a polypropylene plate in 3-fold dilution steps to give a final concentration range in the assay from 12.5 μM to […]. Compound dilutions were added to MAGL protein in assay buffer (50 mM TRIS, 1 mM EDTA, 0.01% (v/v) Tween-20, 2.5% (v/v) DMSO). After shaking, the plate was incubated for 15 min at RT. To start the reaction, 2-arachidonoylglycerol in assay buffer was added. The final concentrations in the assay was […] for MAGL protein and 8 μM 2-arachidonoylglyerol. After shaking and 30 min incubation at RT, the reaction was quenched by the addition of two assay volumes of acetonitrile containing 4 μM of d8-arachidonic acid. The amount of arachidonic acid formed was traced by an online SPE system (Agilent Rapidfire) coupled to a triple quadrupole mass spectrometer. […] The activity of the compounds was calculated based on the ratio of intensities [arachidonic acid/d8-arachidonic acid].

Row | IC50 [nM] | Compound
1 | 2010 | N#Cc1cnn(CC2CC3(C2)CN(C(=O)N2CC4(CC(c5nc(C6CC(F)(F)C6)n[nH]5)C4)C2)C3)c1
2 | 0.18 | Cc1nc(-c2ccc(C3CN(C(=O)N4CC5(CC(c6nnc(C7CC7)[nH]6)C5)C4)C3)cc2)c(C)s1
